PubChem BioAssay AID493246 | Drosophila RNAi Screening Center | 2011
Purpose: 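Identify essential fly genes by loss of cell viability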 (primary screen). System: Drosophila Kc and S2R+ cells. Knock-down reagent: long dsRNA against Drosophila genes. Detection: 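Raw, unnormalised count of remaining cells in each well; per-plate z-scores of cell number underlie the calls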. Reading the numbers: Kc cell number and S2R+ cell number: higher = more cells remaining. Hit rule: 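Active when the per-plate z-score of cell number is 3 or more in the direction of fewer cells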.
In all, the deposit lists about 21,000 reagents; shown is a random part of those with a known target gene and a result. Over the whole deposit, 429 (2%) got an active call. 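Values are raw and not normalised between plates; calls rest on per-plate z-scores that were not deposited.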 A number with no mark means an inactive call. The record does not give: the amount of reagent, the time to read-out.

predicted target	DRSC id	Kc cell number, rep 1	Kc cell number, rep 2	S2R+ cell number, rep 1	S2R+ cell number, rep 2
eIF3g1 (GeneID 31243)	DRSC18427	4.32e5		5.87e5	
CG10116 (GeneID 39515)	DRSC09700	1.59e6	1.70e6	1.17e6	1.27e6
CG4480 (GeneID 34864)	DRSC02750	1.47e6	1.59e6	1.28e6	1.42e6
RpS2 (GeneID 34309)	DRSC03614	9.00e5	9.80e5	7.48e5	8.93e5
Larp7 (GeneID 44900)	DRSC18798	1.49e6	1.56e6	1.01e6	1.16e6
CG34452 (GeneID 5740876)	DRSC09387	1.37e6	1.40e6	1.15e6	1.26e6
jet (GeneID 33705)	DRSC03116	1.26e6	1.38e6	5.70e5	3.70e5
CG14932 (GeneID 34589)	DRSC02414	1.77e6	1.65e6	1.22e6	1.45e6
net (GeneID 45339)	DRSC00309	1.63e6	1.68e6	1.14e6	1.23e6
CG14839 (GeneID 41736)	DRSC14963	1.52e6	1.54e6	1.02e6	1.17e6
CG16984 (GeneID 38322)	DRSC08500	1.39e6	1.17e6	1.00e6	1.27e6
CG32187 (GeneID 39980)	DRSC10521	1.34e6	1.41e6	1.20e6	1.31e6
ACXC (GeneID 34689)	DRSC00846	1.56e6	1.59e6	1.22e6	1.32e6
RluA-1 (GeneID 34438)	DRSC02240	1.77e6	1.80e6	1.19e6	1.45e6
RluA-1 (GeneID 34438)	DRSC03060	1.72e6	1.68e6	1.21e6	1.40e6
CG11414 (GeneID 37923)	DRSC04110	1.38e6	1.44e6	1.21e6	1.30e6
CG31128 (GeneID 318601)	DRSC13675	1.21e6	1.56e6	1.09e6	1.14e6
Idi (GeneID 42526)	DRSC15918	1.65e6	1.64e6	1.29e6	1.34e6
Dhrs4 (GeneID 38598)	DRSC09773	1.41e6	1.48e6	1.34e6	1.18e6
CR18228 (GeneID 8674096)	DRSC15317	1.65e6	1.78e6	1.34e6	1.55e6
Rme-8 (GeneID 35939)	DRSC07054	1.39e6	1.53e6	1.02e6	1.02e6
ppk8 (GeneID 318213)	DRSC17269	1.52e6	1.66e6	1.08e6	1.11e6
Taldo (GeneID 37804)	DRSC04320	1.24e6	1.32e6	1.07e6	1.04e6
Slbp (GeneID 43448)	DRSC16863	1.37e6	1.41e6	1.02e6	1.12e6
uex (GeneID 5740320)	DRSC20784	1.22e6	1.38e6	1.19e6	1.23e6
uex (GeneID 5740320)	DRSC20786	1.23e6	1.51e6	1.17e6	1.19e6
CG4271 (GeneID 33410)	DRSC00649	1.81e6	1.83e6	1.07e6	1.18e6
RpL18A (GeneID 36985)	DRSC07538	1.04e6 (active)	1.13e6	6.29e5	7.51e5
Lamtor3 (GeneID 35055)	DRSC02815	1.75e6	1.84e6	1.25e6	1.40e6
Gpo2 (GeneID 35689)	DRSC06822	1.76e6	1.96e6	1.22e6	1.37e6
CG13334 (GeneID 36510)	DRSC06369	1.47e6	1.51e6	1.20e6	1.34e6
CG4757 (GeneID 41330)	DRSC14130	1.62e6	1.56e6	1.25e6	1.36e6
RASSF8 (GeneID 43096)	DRSC15707	5.28e5		7.39e5	
Atg17 (GeneID 40700)	DRSC12221	1.58e6	1.88e6	1.26e6	1.36e6
CG4362 (GeneID 42410)	DRSC15567	1.53e6	1.51e6	1.09e6	1.20e6
CG11816 (GeneID 32310)	DRSC19428	1.51e6	1.43e6	1.03e6	1.17e6
CG18518 (GeneID 34932)	DRSC01509	1.52e6	1.57e6	9.48e5	1.17e6
CG14511 (GeneID 43445)	DRSC14863	1.49e6	1.47e6	1.04e6	1.16e6
CG30054 (GeneID 246420)	DRSC05354	1.59e6	1.62e6	1.05e6	1.25e6
CG13810 (GeneID 38278)	DRSC08344	1.48e6	1.34e6	1.04e6	1.37e6
CG9933 (GeneID 34700)	DRSC03276	1.66e6	1.82e6	1.23e6	1.31e6
CG12895 (GeneID 36103)	DRSC06210	1.52e6	1.56e6	1.24e6	1.27e6
CG9919 (GeneID 32598)	DRSC20219	1.71e6	1.72e6	1.22e6	1.36e6
5-HT1B (GeneID 37191)	DRSC05031	1.72e6	1.87e6	1.31e6	1.61e6
5-HT1B (GeneID 37191)	DRSC05769	1.05e5 (active)		2.88e5	
Neos (GeneID 38795)	DRSC11235	1.50e6	1.55e6	1.20e6	9.60e5
Ir75a (GeneID 39982)	DRSC10188	1.34e6	1.37e6	1.24e6	1.38e6
CG2211 (GeneID 38157)	DRSC08559	1.30e6	1.30e6	9.65e5	1.17e6
CG14014 (GeneID 33784)	DRSC02345	1.71e6	2.09e6	1.07e6	1.21e6
CG12644 (retired record) (GeneID 50414)	DRSC17850	1.79e6	1.85e6	1.14e6	1.32e6
gskt (GeneID 318552)	DRSC14056	1.28e6	1.67e6	1.13e6	1.19e6
Tsp68C (GeneID 117407)	DRSC09295	1.62e6	1.70e6	1.10e6	1.34e6
ND-51L2 (GeneID 36695)	DRSC07080	1.54e6	1.55e6	1.30e6	1.40e6
CG16935 (GeneID 36540)	DRSC06638	1.59e6	1.60e6	1.22e6	1.43e6
dpr18 (GeneID 32572)	DRSC19606	1.56e6	1.58e6	1.12e6	1.23e6
baf (GeneID 34095)	DRSC03051	1.75e6	1.89e6	1.17e6	1.25e6
CG34284 (GeneID 5740234)	DRSC14773	1.38e6	1.58e6	1.06e6	1.18e6
CG16952 (GeneID 32546)	DRSC19759	1.39e6	1.46e6	1.05e6	1.15e6
CG32023 (GeneID 317827)	DRSC08946	1.44e6	1.54e6	1.18e6	1.33e6
